# About 13,000 (3.2%) of roughly 400,000 compounds were called active. This list was built around the results that the source calls inconclusive (neither active nor inactive); the mix of calls is not that of the screen. Calls come from the whole dose curve; as a rule, active = well fitted cell-killing curve with a large enough effect; inconclusive = small, poorly fitted or top-dose-only effect, or effect the other way; inactive = flat fitted curve, though single readings scatter. Potencies beside an inconclusive call are fits to weak or partial responses and may not hold up.
# Assay: qHTS assay for MDR1-selective chemotherapeutics: Primary screen using the drug-selected MDR subline cells KB-V1; note: nearly all actives have a fitted effect of over 60% in size
# Settings: KB-V1 MDR cells viability, CellTiter-Glo, 72 h; activity change, negative = cytotoxicity: at 46.1 µM (top of the series)
# Method in brief: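 Cytotoxicity toward P-gp-expressing KB-V1 cells was determined as loss of CellTiter-Glo luminescence after 72 h at 37 degrees C. Compounds were tested in quantitative HTS format across a concentration range, with curves fitted to normalized data.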
# % is set by controls: 0 for no effect and ±100 for the full control effect; potency is the fitted concentration of half-maximal effect.
SMILES,Potency,"activity change, negative = cytotoxicity"
COc1ccc(C2=CC(=O)CCC2)cc1,"inconclusive: 29.1 µM [rising, single point]",–
O=C(CNC(=O)c1ccc(Br)o1)NCc1ccccc1,"inconclusive: 29.1 µM [rising, single point]",–
CCN(C(=O)COC(=O)CCCc1c[nH]c2ccccc12)c1c(N)n(Cc2ccccc2)c(=O)[nH]c1=O,"inconclusive: 29.1 µM [rising, single point]",–
Cc1ccc(CN(Cc2ccco2)c2cnc(S(C)(=O)=O)nc2C(=O)Nc2ccc(Br)cc2)o1,"inconclusive: 13 µM [cytotoxic, partial curve, poor fit]",–
CC(=O)Nc1cccc(-c2ccnc3c2CC(C)(C(=O)NCc2ccc(N(C)C)cc2)O3)c1 (configuration not stated),"inconclusive: 29.1 µM [cytotoxic, single point]",–
O=c1[nH]c(C2CCN(S(=O)(=O)/C=C/c3ccccc3)CC2)nc2c1nnn2Cc1ccccc1,–,inactive: -11.8%
O=C(CCl)NN1C(=O)NC2(CCCCC2)C1=O,"inconclusive: 0.0058 µM [rising, full curve, poor fit]",–
CCCCN(c1ccccc1)c1ncnc2c1cnn2-c1ccc(Cl)cc1,–,inactive: 3.08%
COc1ccc(CCN(C)C(=O)c2cc(S(=O)(=O)N3CCCCC3)ccc2Cl)cc1OC,"inconclusive: 18.4 µM [cytotoxic, single point]",–
CN(C)CCNC(=O)c1cc2c(s1)-c1ccc(Cl)cc1SC2,–,inactive: -7.63%
CC(C)Nc1nc(Cl)nc(N(C#N)CN2C(=O)c3ccccc3S2(=O)=O)n1,–,inactive: 9.9%
Cc1cc(NC(=O)CSc2nnc(-c3cccc(F)c3)n2N)no1,"inconclusive: 29.1 µM [rising, single point]",–
Cc1nn(-c2ccccc2)c2sc(C(=O)NC3CCCCC3)cc12,–,inactive: -12%
COc1cccc(-c2nnc(NC(=O)c3ccc(S(=O)(=O)N4CCOCC4)cc3)o2)c1,"inconclusive: 11.6 µM [cytotoxic, partial curve, poor fit]",–
CSc1ccc(Cn2c(C)c(C(=O)NCc3cccs3)sc2=O)cc1,"inconclusive: 20.6 µM [cytotoxic, partial curve]",–
Cc1cn2c(-c3ccc(Cl)cc3)nnc2s1,"inconclusive: 29.1 µM [rising, single point]",–
Cc1ccc(-n2sc3ccccc3c2=O)cc1S(=O)(=O)N1CCCCC1,"inconclusive: 29.1 µM [cytotoxic, single point]",–
CCOc1cc(C(=O)OCc2cc(=O)n3c(C)csc3n2)cc(OCC)c1OCC,"inconclusive: 29.1 µM [rising, single point]",–
Cc1cccc(N(CC(=O)NC(C)c2ccccc2)S(=O)(=O)c2ccccc2)c1C (configuration not stated),"inconclusive: 29.1 µM [cytotoxic, single point]",–
NC1=NC2(CCN(Cc3ccccc3)CC2)n2c(nc3ccccc32)N1,–,inactive: 0.46%
CCCCn1c(N)c(N(CC(C)C)C(=O)C2=COCCO2)c(=O)[nH]c1=O,–,inactive: 0%
O=C(CCc1ccccc1)NCc1ccc(F)cc1,"inconclusive: 18.4 µM [rising, single point]",–
CC(C)CCNC(=O)c1cc(S(=O)(=O)N2CCC3(CC2)OCCO3)ccc1F,"inconclusive: 20.6 µM [cytotoxic, single point]",–
CC(C)(C)C(=O)/C(=C/c1ccc(Cl)cc1)n1cncn1,"inconclusive: 20.6 µM [cytotoxic, single point]",–

# One compound at a time (already shown):
# COc1ccc(C2=CC(=O)CCC2)cc1 is entered as Potency: inconclusive: 29.1 µM [rising, single point]
# Cc1cc(NC(=O)CSc2nnc(-c3cccc(F)c3)n2N)no1 is entered as Potency: inconclusive: 29.1 µM [rising, single point]
# NC1=NC2(CCN(Cc3ccccc3)CC2)n2c(nc3ccccc32)N1 is entered as activity change, negative = cytotoxicity: inactive: 0.46%

# 2 entries picked at random from the list so far:
SMILES,Potency,"activity change, negative = cytotoxicity"
CCCCn1c(N)c(N(CC(C)C)C(=O)C2=COCCO2)c(=O)[nH]c1=O,–,inactive: 0%
O=C(CCc1ccccc1)NCc1ccc(F)cc1,"inconclusive: 18.4 µM [rising, single point]",–

# Continued.

SMILES,Potency,"activity change, negative = cytotoxicity"
Cc1ccc(NC(=O)C2CCCN(S(=O)(=O)c3cnc[nH]3)C2)cc1C (configuration not stated),"inconclusive: 3.66 µM [rising, full curve, poor fit]",–
CCc1ccc2[nH]c3nc(SCC(=O)NCC4CCCO4)nnc3c2c1 (configuration not stated),"inconclusive: 16.4 µM [cytotoxic, partial curve, poor fit]",–
CCOCCOC(=O)c1[nH]c2c(c1C)C(=O)CC(c1ccc(N(C)C)cc1)C2 (configuration not stated),"inconclusive: 29.1 µM [cytotoxic, single point]",–
Cc1c(NS(=O)(=O)c2ccc(N)cc2)c(=O)n(-c2ccccc2)n1C,"inconclusive: 23.1 µM [rising, single point]",–
CCN(CC(=O)NCc1ccc(F)cc1)CC(=O)NC1CCCC1,–,inactive: -3.46%
Cc1nn(C)c(C)c1/C=C(/C(=O)C(C)(C)C)n1cncn1,"inconclusive: 32.6 µM [cytotoxic, single point]",–
Cc1cnc(NC(=O)c2ccc(F)c(S(=O)(=O)N3CCOCC3)c2)s1,active: 18.4 µM,–
CCN(Cc1ccc(OC)cc1)c1ccc(-c2nc(-c3ccncc3)no2)cc1[N+](=O)[O-],"inconclusive: 3.26 µM [cytotoxic, full curve, poor fit]",–
Cn1nc(CC(=O)NC2CCCCCCCCCCC2)c2ccccc2c1=O,–,inactive: -30.4%
O=C(CCC(=O)N1CCN(S(=O)(=O)c2ccc(Cl)cc2)CC1)NC1CCCc2ccccc21 (configuration not stated),–,inactive: -23.7%
NC(=O)c1ccccc1NC(=O)CC12CC3CC(CC(Br)(C3)C1)C2,–,inactive: 17.3%
O=C(NCc1cccc(Cl)c1)c1cccn1-c1nnc(N2CCCC2)s1,–,inactive: 1.5%
c1ccc(-[n+]2nc(Nc3cccc4ccccc34)sc2-c2c3ccccc3cc3ccccc23)cc1,–,inactive: 0%
COC(=O)C1CCCN1S(=O)(=O)c1ccccc1NC(=O)c1cc(OC)c(OC)c(OC)c1 (configuration not stated),–,inactive: -8.56%
O=C(Nc1nnc(-c2ccco2)o1)c1ccc(S(=O)(=O)N2CCCC2)cc1,"inconclusive: 18.4 µM [cytotoxic, single point]",–
Cc1ccccc1-n1nc(C)c2cc(C(=O)NCc3cccnc3)sc21,"inconclusive: 11.6 µM [cytotoxic, partial curve]",–
O=C(CSc1nnc2ccccn12)NNC(=O)c1ccc(Br)cc1,"inconclusive: 29.1 µM [rising, single point]",–
CCOC(=O)Cn1c(=O)oc2cc(S(=O)(=O)NCc3ccc(F)cc3)ccc21,"inconclusive: 5.8 µM [rising, partial curve]",–
COc1cc(C(=O)NCCOc2cc(C)ccc2C(C)C)cc(OC)c1OC,active: 16.4 µM,–
COc1ccc(C(C)=O)cc1COC(=O)C(CO)NS(=O)(=O)c1ccc(Br)cc1 (configuration not stated),–,inactive: -22.7%
O=C(COC(=O)c1ccccn1)Nc1nccs1,"inconclusive: 23.1 µM [rising, partial curve, poor fit]",–
COc1ccc2c(c1)C(c1ccc(Cl)cc1)NC(=O)C2 (configuration not stated),–,inactive: -4.63%
CC(=O)N(c1ccccc1)c1nc(/C=C/C(=O)Nc2c(C)cc(C)cc2C)cs1,"inconclusive: 1.64 µM [cytotoxic, partial curve, poor fit]",–
COC(=O)c1sccc1S(=O)(=O)N1CCN(c2cccc(C)c2C)CC1,–,inactive: 7.81%

SMILES,Potency,"activity change, negative = cytotoxicity"
Cc1ccc(C)c(NC(=S)NC(C)C(c2ccccc2)N2CCN(C)CC2)c1 (configuration not stated),"inconclusive: 14.6 µM [cytotoxic, single point]",–
O=C(O)C1(c2ccccc2)CCN(S(=O)(=O)c2cccc(Cl)c2)CC1,"inconclusive: 8.2 µM [rising, partial curve]",–
CCCCCCNC1=NCCS1,"inconclusive: 18.4 µM [rising, single point]",–
O=C(N/N=C/c1cc(Br)c(O)c(Br)c1)c1cc2c(ccc3ccccc32)o1,"inconclusive: 13 µM [cytotoxic, partial curve, poor fit]",–
CCOC(=O)C1CCCN(Cc2cc(Br)c(OC)cc2OC)C1 (configuration not stated),active: 10.3 µM,–
COc1ccc(-c2cc(C(=O)N3CCN(c4ccccc4OC)CC3)c3cc(C(C)C)ccc3n2)cc1,–,inactive: -21.7%
NC1=NC(=O)/C(=C/c2ccc(-c3ccc(S(N)(=O)=O)cc3)o2)S1,–,inactive: 0%
CCN(CC)CCc1nc(-c2ccccc2)no1,"inconclusive: 29.1 µM [cytotoxic, single point]",–
CCc1ccc(C(=O)Nc2ccc3c(c2)n(C)c(=O)n3C)cc1,"inconclusive: 14.6 µM [cytotoxic, partial curve]",–
Cc1nn(C)cc1CN(C)C(=O)c1nn2c(c1Cl)NC(c1cccs1)CC2C(F)(F)F (configuration not stated),active: 18.4 µM,–
NCC(O)COc1ccc2c(c1)OCO2 (configuration not stated),–,inactive: -1.25%
COCCCN1C(=O)C(CC(=O)NCCCN(C)C)CC(C(=O)N(C(C)C)C(C)C)=C1C (configuration not stated),–,inactive: 14.3%
Cn1c(C(=O)N/N=C/c2ccccc2)cc2ccccc21,–,inactive: 0.468%
CCc1ccc(OCC(=O)NC(NC(=S)Nc2ccccc2OC)C(Cl)(Cl)Cl)cc1 (configuration not stated),"inconclusive: 29.1 µM [cytotoxic, single point]",–
CCC(=O)N1CCc2cc(Br)cc(S(=O)(=O)N(C)c3ccc(OC)cc3)c21,"inconclusive: 5.8 µM [cytotoxic, partial curve]",–
O=C(NCc1cccc(C(F)(F)F)c1)c1c[nH]c(=O)s1,"inconclusive: 18.4 µM [cytotoxic, partial curve, poor fit]",–
c1csc(-c2nc3c4ccccc4c4ccccc4c3[nH]2)c1,"inconclusive: 18.4 µM [cytotoxic, single point]",–
CC(=O)N1CCN(C(=O)c2oc3ccccc3c2C)CC1,–,inactive: 13.1%
C=CCc1cc(/C=C2/NC(=O)NC2=O)cc(OCC)c1O,–,inactive: -19.8%
COc1ccc(CCN(C)CC(=O)Nc2ccc(F)c(Cl)c2)cc1OC,"inconclusive: 2.59 µM [cytotoxic, full curve]",–
N#Cc1nc2ccccc2n1OCc1ccccc1,"inconclusive: 23.1 µM [rising, single point]",–
COc1ccccc1N1CCN(Cc2ccc(OC)c(OC)c2OC)CC1,–,inactive: -28.7%
CN(C)CCN(Cc1ccccc1)c1ccnc(N(C)C)c1C#N,–,inactive: -5.01%
CCOc1ccccc1Nc1ncccc1C(=O)N1CCCC1,"inconclusive: 18.4 µM [cytotoxic, partial curve, poor fit]",–
